Experimental data reported in PMC7819943, “Rice protein-binding microarrays: a tool to detect cis-acting elements near promoter regions in rice”.
The list shows a part of the results.

Amino acid sequences for entries named in this document (tags omitted).
UniProt Q0JBA9, entry or part of it: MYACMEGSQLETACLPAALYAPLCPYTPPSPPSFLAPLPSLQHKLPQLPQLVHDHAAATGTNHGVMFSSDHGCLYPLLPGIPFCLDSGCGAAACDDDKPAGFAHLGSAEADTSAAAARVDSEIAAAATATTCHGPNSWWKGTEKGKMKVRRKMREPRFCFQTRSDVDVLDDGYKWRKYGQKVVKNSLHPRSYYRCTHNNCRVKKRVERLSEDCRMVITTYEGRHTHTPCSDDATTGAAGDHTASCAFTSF

What follows are sequences tested against OsWRKY34 (Oryza sativa, UniProt Q0JBA9 1-250) (assay: protein-binding microarray (RPBM); PBS, 2% BSA, 51.3 ng/ul salmon testes DNA, 50 uM zinc acetate, 200 nM TF, 25 C, 1 h; high values mean tight binding). Conditions: protein: recombinant; tags: N-terminal polyhistidine and DsRed monomer fusion (pET32a); label: CyDye5-dUTP incorporated in the synthesized complementary strand; 3' TTTTT single-stranded linker to array surface; dsDNA, one strand shown.
Method in brief: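 A custom Agilent array was converted to double-stranded form by primer extension with Cy5-dUTP and blocked with 2% BSA. Protein at 200 nM in PBS with 2% BSA, salmon testes DNA and 50 µM zinc acetate was applied for 1 h at 25 °C, followed by washing. The proteins were polyhistidine–DsRed N-terminal fusions of transcription factors, expressed in E. coli BL21-CodonPlus and Ni–NTA-purified. The binding signal is per-feature fluorescence intensity (arbitrary units) from an Axon 4000B scanner.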

| Sequence | binding signal |
| --- | --- |
| ATTCCTTAGCATGTCACCCTCCTCCTCATCTCACCACACACGGAGTCACCTAGTGCAG | 8370 fluorescence intensity (a.u.) |
| CCGCCTCTGTCTATTTTGGCATTATCCACCGTTAATCATACGGAGTCACCTAGTGCAG | 11200 fluorescence intensity (a.u.) |
| CCTATTTAACACCGCCTCGTCGCTCTCTCCTTCCTCATCACGGAGTCACCTAGTGCAG | 8960 fluorescence intensity (a.u.) |
| TTATTTGCTTGCTTGTCTGCCTACTGTCCAGTGACTGACCCGGAGTCACCTAGTGCAG | 9500 fluorescence intensity (a.u.) |
| GGTTGGGACGTGGAGAGTTGTTTGTAGATCGAGTTGAAAGCGGAGTCACCTAGTGCAG | 9120 fluorescence intensity (a.u.) |
| CAACTTTTCCATCACACCGTTTCAATTTTAACCAAACTTCCGGAGTCACCTAGTGCAG | 9410 fluorescence intensity (a.u.) |
| TGATTTTAAGGTTTTTTTTCATGATTTATTTTGCAACATTCGGAGTCACCTAGTGCAG | 8190 fluorescence intensity (a.u.) |
| CCTATCAAAATCATACGTTTTTCTTATTCCTACGTTTTCTCGGAGTCACCTAGTGCAG | 12500 fluorescence intensity (a.u.) |
| ATCAATCTTAATTCGCTTCTACATTGGGGTGCTTGTTAATCGGAGTCACCTAGTGCAG | 10300 fluorescence intensity (a.u.) |
| GATCACTCTGCCTTGTCTTAGGAGGGCCCCTTTTATTTATCGGAGTCACCTAGTGCAG | 11800 fluorescence intensity (a.u.) |
| GCGTCGTGTTTCCGGGGTCCCCTGCCACTGTCGAGCGCTGCGGAGTCACCTAGTGCAG | 8220 fluorescence intensity (a.u.) |
| GATGATTCTGTTTGGTTAGCTTCTCCGAGATTTGGAGGCCCGGAGTCACCTAGTGCAG | 8060 fluorescence intensity (a.u.) |
| CTCCGCTCCCGCTTCCCCGAGTTCCGCCGCTACAAGCTCGCGGAGTCACCTAGTGCAG | 8040 fluorescence intensity (a.u.) |
| ACTGCTTTACAGTAAAGCCATTGTACTACATGTCTTTTTTCGGAGTCACCTAGTGCAG | 8620 fluorescence intensity (a.u.) |
| TTGGCATGGTTATTTCATCCCCAAAATTTGCTTATAGCCACGGAGTCACCTAGTGCAG | 8470 fluorescence intensity (a.u.) |
| TTTGGATTGGGTTTGGTGGTTGGGTGGGAGGGAGGGAGCTCGGAGTCACCTAGTGCAG | 28600 fluorescence intensity (a.u.) |
| GGAGGACGCGTGGCGTTGGCATGCTCGTTTCGGCCACATCCGGAGTCACCTAGTGCAG | 9040 fluorescence intensity (a.u.) |
| AATTGCTGTTGATTTGCCACTACCACTCTCCCCAACAAGTCGGAGTCACCTAGTGCAG | 8640 fluorescence intensity (a.u.) |
| GCGTCTACACTTATACCATGTTTGTCAAGATCTCACTTCACGGAGTCACCTAGTGCAG | 10700 fluorescence intensity (a.u.) |
| CATACCAACTATGCAGCATTAATTCCACCTCTTAAGTTACCGGAGTCACCTAGTGCAG | 8090 fluorescence intensity (a.u.) |
| CTTATTAGTACCAACTATATCTCGCTGGATTTTGTAGATTCGGAGTCACCTAGTGCAG | 8720 fluorescence intensity (a.u.) |

| Sequence | binding signal |
| --- | --- |
| GCTCACCTCCAAAGCCGCGTTCCTGTCACTCGGCCACACTCGGAGTCACCTAGTGCAG | 9750 fluorescence intensity (a.u.) |
| TGTAATGTGTTATATTTTAGGATTAATCAGTTGTTCCTACCGGAGTCACCTAGTGCAG | 8470 fluorescence intensity (a.u.) |
| TGGTGGTGGAAATTTTGGAAATCGTGAGGGCTACACATACCGGAGTCACCTAGTGCAG | 9540 fluorescence intensity (a.u.) |
| TCCTATATTTTTTTCTTATACCTCCGTTTTCTCAATTCTACGGAGTCACCTAGTGCAG | 12300 fluorescence intensity (a.u.) |
| GCCGCCGCCACCACCGCCGCCTTATCGGCATCCGGGCTCACGGAGTCACCTAGTGCAG | 8230 fluorescence intensity (a.u.) |
| GTAAAGCTTCTTGCACTGTGGCTAGCTTCAAGCTCAAAACCGGAGTCACCTAGTGCAG | 8950 fluorescence intensity (a.u.) |
| ACCTATCCCATTCCCAACTGGAAACCAAAGCACGATTCAGCGGAGTCACCTAGTGCAG | 8170 fluorescence intensity (a.u.) |
| ATAGCGGTTGAGGGTGGGCTTCCTTGAGTCTGTGAGTGCCCGGAGTCACCTAGTGCAG | 13400 fluorescence intensity (a.u.) |
| TGCCATGCACGCCGCCTCGTCCTTGTTCTTGACCCGCGCCCGGAGTCACCTAGTGCAG | 10400 fluorescence intensity (a.u.) |
| AGGCAGGGTGGGTGGGTGGTGGGCTTGCTCGCTCCGCGTCCGGAGTCACCTAGTGCAG | 19700 fluorescence intensity (a.u.) |
| CCGCTGGCGCACTCGCTCCACGCCGCCCGCCGCCGCGCCCCGGAGTCACCTAGTGCAG | 8280 fluorescence intensity (a.u.) |
| GGCTCTCGCTCTCACCTCGTTAGGTGCCGCGTCGCTCTTCCGGAGTCACCTAGTGCAG | 8740 fluorescence intensity (a.u.) |
| CTCTACATGTGGGACTATTATTGCTCGGCTGGGTTGTTACCGGAGTCACCTAGTGCAG | 10000 fluorescence intensity (a.u.) |
| GAGGATTGATTTGTTTTTTTTTTTTGGGGTTTTCTCTTCTCGGAGTCACCTAGTGCAG | 16300 fluorescence intensity (a.u.) |
| GAGTCACTCTCACTCACTCCACCCCGGCCACTCGTAAACCCGGAGTCACCTAGTGCAG | 11100 fluorescence intensity (a.u.) |
| CTCTCTCGCCTCTCTATCTATCTGGGCCCAGAGGTTGGATCGGAGTCACCTAGTGCAG | 9630 fluorescence intensity (a.u.) |
| CTCTCCGGTTGGCCTCTGCTTCGTTCTCCTTCGCGCAGATCGGAGTCACCTAGTGCAG | 9530 fluorescence intensity (a.u.) |
| GTGTTTGATTTGCCTCTCTTAAGAACCACTGTGAAAACATCGGAGTCACCTAGTGCAG | 9680 fluorescence intensity (a.u.) |
| ATGTTATGTATGTTGTACTATCCTCTCTATCGTCCTAAAACGGAGTCACCTAGTGCAG | 8500 fluorescence intensity (a.u.) |
| CCGTACAAAAAGCATCTTACGGTGGGGTCAGGTGTATTTTCGGAGTCACCTAGTGCAG | 10300 fluorescence intensity (a.u.) |
| TTTTTGTCGGTATTTTGGTACGTTATTTGTATTTTAGCCACGGAGTCACCTAGTGCAG | 10300 fluorescence intensity (a.u.) |

No new results follow: entries from further up.

| Sequence | binding signal |
| --- | --- |
| ACTGCTTTACAGTAAAGCCATTGTACTACATGTCTTTTTTCGGAGTCACCTAGTGCAG | 8620 fluorescence intensity (a.u.) |
| TTGGCATGGTTATTTCATCCCCAAAATTTGCTTATAGCCACGGAGTCACCTAGTGCAG | 8470 fluorescence intensity (a.u.) |
